# Experimental data as given in PubChem BioAssay AID1688 (National Center for Advancing Translational Sciences (NCATS), 2009).
# Hit rate of the full screen: of about 220,000 compounds, about 2,400 (1.1%) were called active. Inconclusive means that the source gave no clear call. Such entries were picked first, then a sample of the others. Calls come from the whole dose curve; as a rule, active = well fitted inhibition curve with a large enough effect; inconclusive = small, poorly fitted or top-dose-only effect, or effect the other way; inactive = no such curve, though single readings can be large or run the other way. Where the call is inconclusive, the potency comes from a doubtful curve fit.
# Assay: qHTS Multiplex Assay to Identify Dual Action Probes in a Cell Model of Huntington: Aggregate Formation (GFP); note: nearly all actives have a fitted effect of over 60% in size
# Settings: PC12 HttQ103-GFP aggregates, Acumen cytometry, 40 h; activity change, negative = inhibition: at 46.1 µM (top of the series) unless noted
# In short: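 PC12 cells with ecdysone-inducible HTT exon1 Q103-GFP, induced by 100 nM tebufenozide, given compounds in a concentration series. GFP aggregates (1–25 um, 6 SD above background) counted in lysates by laser-scanning cytometry, 488 nm excitation.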
# % is set by controls: 0 for no effect and ±100 for the full control effect; potency is the fitted concentration of half-maximal effect.
Structure (SMILES),Potency,"activity change, negative = inhibition"
CCc1ccccc1NC(=O)c1noc(C(C)C)c1[N+](=O)[O-],active: 7.08 µM,–
O=C(Cc1cccs1)N1CCN(c2nc(-c3ccc(Cl)cc3)cs2)CC1,"inconclusive: 35.5 µM [inhibitor, single point]",–
COc1ccc(NC(=O)c2cc(S(=O)(=O)N3CCCC3)oc2C)cc1,–,inactive: -4.97% [at 9.22 µM]
S=C1NC2=C(CCC/C2=C\c2ccc(Cl)cc2)C(c2ccc(Cl)cc2)N1 (stereo not given),–,inactive: 12% [at 9.22 µM]
CC(C)CC1(C)N=C(c2ccccc2)C(=S)N1 (stereo not given),"inconclusive: 35.5 µM [activator, single point]",–
CCOc1cccc(/C(O)=C2/C(=O)C(=O)N(CCN3CCOCC3)C2c2cccnc2)c1 (stereo not given),–,inactive: -2.67% [at 9.22 µM]
COc1ccc(C(=O)c2ccc(N3CCN(C(=O)c4ccc(F)cc4)CC3)c(F)c2)cc1Br,active: 12.6 µM,–
COc1ccc(CCNC(=O)c2cc(-c3ccc(C)cc3O)n[nH]2)cc1OC,"inconclusive: 5.62 µM [inhibitor, single point]",–
FC(F)(Cl)c1nnc2ccc(Sc3ccccn3)nn12,"inconclusive: 20 µM [inhibitor, single point]",–
CC1(C)CC(N(Cc2ccc(F)cc2)C(=O)c2ccc(F)cc2)CCO1 (stereo not given),–,inactive: -8.12% [at 9.22 µM]
COc1ccc(C)cc1NCC(=O)Nc1ccc(C(C)(C)C)cc1,"inconclusive: 3.16 µM [inhibitor, single point]",–
COc1ccc(Cl)cc1NC(=O)CN(C)C1CCCCC1,–,inactive: -16.8%
CC1(C)CC(=O)C(N=Nc2cccc(S(=O)(=O)N3CCOCC3)c2)=C(O)C1,–,inactive: 3.94% [at 9.22 µM]
Cc1ccc(S(=O)(=O)N(Cc2ccc(F)cc2)Cc2ccco2)cc1,"inconclusive: 22.4 µM [inhibitor, single point]",–
Fc1ccc2nc(Nc3nc4c(F)cccc4s3)sc2c1,"inconclusive: 35.5 µM [inhibitor, single point]",–
COc1ccc(Sc2ccc(NC(=O)c3ccccc3Cl)cc2C#N)cc1,"inconclusive: 35.5 µM [inhibitor, single point]",–
CCCOC(=O)c1ccc(Nc2cc(C)nc3ncnn23)cc1,"inconclusive: 20 µM [activator, single point]",–
Cc1noc(C)c1S(=O)(=O)Nc1ccc(O)c2c(=O)cc(-c3ccccc3Cl)oc12,–,inactive: -17.3% [at 9.22 µM]
COc1cc(CNc2ccc(C)c(C)c2)cc(OC)c1OC,"inconclusive: 35.5 µM [inhibitor, single point]",–
CC(=O)c1ccc(OCc2ccc(C(=O)c3ccccc3)cc2)cc1,"inconclusive: 7.08 µM [inhibitor, partial curve]",–
CCc1ccc(NC(=O)/C(C#N)=C/c2cn(CC(=O)O)c3ccccc23)cc1,–,inactive: 19.7% [at 9.22 µM]
NCc1ccccc1Sc1ccccc1CO,–,inactive: 18%
Cc1ccc(Cc2c[nH]c(=S)s2)cc1,"inconclusive: 0.794 µM [inhibitor, single point]",–
O=C(CCl)N=c1sccn1Cc1cccc2ccccc12,"inconclusive: 15.8 µM [inhibitor, single point]",–

# Single values from above.
# In activity change, negative = inhibition, CC1(C)CC(=O)C(N=Nc2cccc(S(=O)(=O)N3CCOCC3)c2)=C(O)C1 has the entry inactive: 3.94% [at 9.22 µM]
# In Potency, Fc1ccc2nc(Nc3nc4c(F)cccc4s3)sc2c1 has the entry inconclusive: 35.5 µM [inhibitor, single point]
# In Potency, Cc1ccc(S(=O)(=O)N(Cc2ccc(F)cc2)Cc2ccco2)cc1 has the entry inconclusive: 22.4 µM [inhibitor, single point]
# In Potency, O=C(Cc1cccs1)N1CCN(c2nc(-c3ccc(Cl)cc3)cs2)CC1 has the entry inconclusive: 35.5 µM [inhibitor, single point]
# In Potency, COc1ccc(CCNC(=O)c2cc(-c3ccc(C)cc3O)n[nH]2)cc1OC has the entry inconclusive: 5.62 µM [inhibitor, single point]

# Further results

Structure (SMILES),Potency,"activity change, negative = inhibition"
CCn1c(=O)cc(SCC(=O)NCc2ccccn2)c2ccccc21,"inconclusive: 5.62 µM [inhibitor, single point]",–
CC1(C)Cc2c(c(=S)nc(-c3ccccc3)n2CCO)CO1,–,inactive: -26.3%
COc1cccc(-c2csc(N3CCN(C(=O)Nc4ccc(F)cc4)CC3)n2)c1,"inconclusive: 25.1 µM [inhibitor, single point]",–
CCC(=O)Nc1cccc(NC(=S)NC(=O)c2ccccc2Cl)c1,–,inactive: -13.2%
COc1ccc(C2(O)CCN(CC(=O)Nc3nc(-c4ccccc4)cs3)CC2)cc1,"inconclusive: 35.5 µM [inhibitor, single point]",–
COc1cc(NS(=O)(=O)c2ccc(C)c(C)c2)c(OC)cc1Cl,"inconclusive: 3.55 µM [inhibitor, partial curve]",–
CCOC(=O)c1ccc(NS(=O)(=O)c2ccc3[nH]c(=O)[nH]c3c2)cc1,–,inactive: 8.15%
O=C(c1ccc(Cl)cc1)c1ccc(OCC(=O)N2CCOCC2)cc1,"inconclusive: 14.1 µM [inhibitor, single point]",–
CN(Cc1ccc(Cl)cc1)C(=O)CCl,"inconclusive: 35.5 µM [inhibitor, single point]",–
COc1ccc(NC(=O)Nc2nc(C)cc(C)n2)c(OC)c1,active: 28.2 µM,–
Cc1cc(Nc2nc3ccccc3nc2Cl)n(-c2ccccc2)n1,"inconclusive: 35.5 µM [activator, single point]",–
CCOC(=O)N1CCC(Nc2nc3ccccc3nc2NS(=O)(=O)c2ccc(Cl)cc2)CC1,active: 11.2 µM,–
CCCCn1nnnc1SCC(=O)c1cc(Cl)ccc1OC,–,inactive: -0.415%
CCCC(=O)NC(=S)Nc1ccc(NC(=O)c2cccs2)cc1,"inconclusive: 8.91 µM [activator, single point]",–
O=C1C2C3C=CC(CO)(O3)C2C(=O)N1c1ccccc1-c1ccccc1 (stereo not given),"inconclusive: 31.6 µM [inhibitor, single point]",–
Nc1nc(N2CCCCC2)nc2ccccc12,"inconclusive: 3.16 µM [activator, single point]",–
Cc1ccc(-n2c(Cc3cccn3C)nnc2SCC(=O)Nc2nnc(C)s2)cc1,"inconclusive: 1.12 µM [inhibitor, single point]",–
O=C(Nc1cccc2c1C(=O)NC2=O)c1ccc(N2C(=O)CCC2=O)cc1,"inconclusive: 3.55 µM [activator, full curve, poor fit]",–
Cc1ccc(C(=O)N/C(=C\c2sccc2C)C(=O)NCc2ccco2)cc1,"inconclusive: 11.2 µM [activator, partial curve, poor fit]",–
Cc1ccc2oc3c(c(=O)c2c1)C(c1cccc(Cl)c1)N(CCCN1CCOCC1)C3=O (stereo not given),–,inactive: -30.6%
Cc1ccccc1OCCNc1cc(N2CCCCC2)ccc1[N+](=O)[O-],"inconclusive: 11.2 µM [inhibitor, partial curve]",–
Cc1cc(/C=N/n2cnnc2)c(C)n1-c1ccc(OCc2ccc(Cl)cc2Cl)cc1,active: 6.31 µM,–
CC(=O)Nc1c(C(=O)NCc2ccccc2)nnn1Cc1ccccc1,"inconclusive: 35.5 µM [inhibitor, single point]",–
Cn1c(CCN2CCCCC2)nc2cc(NS(=O)(=O)c3ccc(Cl)cc3)ccc21,"inconclusive: 35.5 µM [inhibitor, single point]",–

Structure (SMILES),Potency,"activity change, negative = inhibition"
CCN(CC)S(=O)(=O)N1CCC(C(=O)NCc2ccc(C)cc2)CC1,–,inactive: 6.31%
Cn1c(N/N=C/c2c[nH]c3ccccc23)nc2ccccc21,–,inactive: -9.41%
COC(=O)c1ccc(OCCOc2ccccc2)cc1,–,inactive: 10.1%
CCOC(=O)c1cnn(-c2ccccc2)c1NC(=O)c1ccc(C)cc1,"inconclusive: 8.91 µM [activator, partial curve, poor fit]",–
CC(C)CCNC(=O)CCNS(=O)(=O)c1ccc(Cl)cc1,"inconclusive: 10 µM [inhibitor, partial curve]",–
CC(=O)C1C(c2cn(-c3ccccc3)nc2-c2cccs2)NC(=O)NC1(O)C(F)(F)F (stereo not given),–,inactive: 9.16%
O=C(Nc1cccc(Cl)c1)c1cc(F)cc2c1OCOC2,–,inactive: -4.18% [at 9.22 µM]
COc1ccc(NC(=O)N2CCc3ccccc32)cc1,–,inactive: -6.07%
COc1ccc([C@@H]2[C@@H](C(=O)C(C)(C)C)N3N=Cc4ccccc4[C@@H]3C23C(=O)OC(C)(C)OC3=O)cc1OC,"inconclusive: 10 µM [activator, partial curve, poor fit]",–
Cc1ncc(CO)c(/C=N/NC(=O)c2cc(Br)ccc2O)c1O,"inconclusive: 35.5 µM [inhibitor, single point]",–
CN(C)CCn1c(=N)n(CC(O)c2ccc(Cl)c(Cl)c2)c2ccccc21 (stereo not given),"inconclusive: 22.4 µM [inhibitor, single point]",–
CC(C)Cc1cc(C(=O)Nc2cc(Br)ccc2O)no1,"inconclusive: 3.55 µM [activator, single point]",–
Cc1cc(/C=C(\C#N)c2nnc(N3CCOCC3)n2-c2ccccc2)c(C)n1-c1ccccc1,"inconclusive: 35.5 µM [activator, single point]",–
COc1cc2[nH]c(=S)n(C3CC3)c(=O)c2cc1OC,"inconclusive: 6.31 µM [activator, partial curve]",–
CS(=O)(=O)c1nc(-c2cccs2)cc(C(F)(F)F)n1,active: 7.08 µM,–
O=C(c1ccc2ncsc2c1)N1CCN(c2ccc(O)cc2)CC1,"inconclusive: 12.6 µM [inhibitor, partial curve]",–
O=C(CCC(=O)Nc1ccc(F)cc1)N/N=C/c1ccc(O)cc1O,"inconclusive: 12.6 µM [inhibitor, partial curve]",–
O=c1c2ccccc2ncn1Cc1cccc2ccccc12,"inconclusive: 10 µM [inhibitor, partial curve]",–
Cc1onc(-c2ccccc2)c1C(=O)NC(=S)NNC(=O)c1ccncc1,"inconclusive: 12.6 µM [inhibitor, partial curve, poor fit]",–
NC(=O)c1c(NC(=O)CSc2nnc(Cc3ccccc3)n2Cc2ccco2)sc2c1CCC2,"inconclusive: 22.4 µM [inhibitor, single point]",–
CCn1c(=O)c(-c2ccccc2)c(O)c2ccccc21,–,inactive: -7.26% [at 9.22 µM]
N=c1c2c(-c3ccccc3)c(-c3ccccc3)n(Cc3ccco3)c2ncn1Cc1ccco1,active: 11.2 µM,–
